# According to PubChem BioAssay AID504444 (National Center for Advancing Translational Sciences (NCATS), 2011):
# Out of some 360,000 compounds screened, about 7,500 (2.1%) were called active. The inconclusive results got no clear call from the source; some entries with a clear call stand among them for comparison. The call rests on the fitted dose curve; in most records, active means well fitted inhibition curve with a large enough effect; inconclusive means small, poorly fitted or top-dose-only effect, or effect the other way; inactive means flat fitted curve, though single readings scatter. Potencies beside an inconclusive call are fits to weak or partial responses and may not hold up.
# Assay: Nrf2 qHTS screen for inhibitors; further: nearly all actives have a fitted effect of over 60% in size
# Conditions: A549 ARE-Fluc reporter, luciferase luminescence, 18-24 h; series mostly up to 46 µM
# Method in brief: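 A549 ARE_Fluc cells (5000/well, 5% FBS OPTI-MEM) pre-incubated 2 h, then treated with compounds 18-24 h at 37C/5% CO2 in concentration-response. CellTiter-Fluor viability read first; BugLite luciferase luminescence after 15 min at room temperature gives Nrf2 activity.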
# Potency means the concentration at half of the fitted maximal effect.
row,Compound,Potency
1,O=C(NC(=S)Nc1ccc(Oc2ccc(Cl)cc2)cc1)c1ccccc1,"inconclusive: 20.6 µM [falling, single point]"
2,O=S(=O)(c1ccc(SCCOc2ccc(F)cc2)nc1)N1CCCC1,"inconclusive: 20.6 µM [falling, single point]"
3,COc1ccccc1-c1cc(C(=O)Nc2cc(C)n(Cc3ccc(Cl)cc3)n2)no1,"inconclusive: 18.4 µM [falling, single point]"
4,O=C(Nc1nc(-c2ccccn2)cs1)C1CC1,inactive
5,COCc1cc(C)nc(NCCO)c1C#N,inactive
6,CCOc1ccc2nc(N3CCCC(C(=O)NCCc4ccc(Cl)cc4)C3)sc2c1 (stereo not given),"inconclusive: 2.06 µM [activator, full curve, poor fit]"
7,COc1cc2c(cc1OC)-c1cc(NC3CCCCCCC3)nc(=O)n1CC2,"inconclusive: 29.1 µM [falling, single point]"
8,COc1ccccc1NC(=O)N1CCN(c2ccc3nnc(-c4ccc(F)cc4)n3n2)CC1,active: 9.2 µM
9,COc1ccc(C(=O)Nc2ccc3ncccc3c2)cc1,"inconclusive: 1.46 µM [activator, full curve]"
10,Cc1nn(CCc2nc(-c3ccco3)cs2)c2[nH]c(=O)cc(C(F)(F)F)c12,"inconclusive: 3.66 µM [activator, single point]"
11,Cc1ccc(NC(=O)CN2c3cccc4cccc(c34)S2(=O)=O)cc1S(=O)(=O)N1CCOCC1,"inconclusive: 23.1 µM [falling, single point]"
12,CCOC(=O)C1=C(CP(=O)(c2ccccc2)c2ccccc2)NC(=O)NC1c1ccc(Cl)cc1 (stereo not given),"inconclusive: 25.9 µM [falling, partial curve, poor fit]"
13,COc1ccc(N2CCN(CCCNC(=O)c3c(C)nn(-c4ccc(F)cc4)c3-n3cccc3)CC2)cc1,"inconclusive: 29.1 µM [falling, partial curve, poor fit]"
14,O=C(c1ccccc1)c1ccc(C(=O)N2CCN(c3ccc(O)cc3)CC2)cc1,"inconclusive: 20.6 µM [falling, single point]"
15,COc1ccc(S(=O)(=O)N(CC(=O)NC(C)c2ccccc2)c2ccc(C)cc2)cc1OC (stereo not given),inactive
16,Cc1ccc(S(=O)(=O)NC(N)=NCCC[C@@H](N)C(=O)Nc2cc(C(F)(F)F)ccc2Cl)cc1,"inconclusive: 25.9 µM [falling, partial curve, poor fit]"
17,CCN(c1ccccc1)S(=O)(=O)c1ccc(Cl)c(NC(=O)CSc2nncs2)c1,"inconclusive: 32.6 µM [falling, single point]"
18,CC(=O)Nc1ccc(Nc2ccc3c4c(cc(=O)n3C)-c3ccccc3C(=O)c24)cc1,"inconclusive: 2.59 µM [falling, partial curve, poor fit]"
19,CC(C)(C)OC(=O)C(C)(C)O/N=C(\C(=O)O)c1csc(N)n1,"inconclusive: 20.6 µM [activator, partial curve]"
20,COc1ccccc1N1CCN(C(=O)c2cc3c(=O)n(Cc4cccs4)ccc3nc2C)CC1,"inconclusive: 0.146 µM [falling, full curve, poor fit]"

row,Compound,Potency
1,CCCCCCCc1ccc(-c2ccc(O)cc2)nc1,"inconclusive: 29.1 µM [activator, single point]"
2,Cc1ccc(Cl)cc1NC1=C/C(=N\S(=O)(=O)c2cccs2)c2ccccc2C1=O,active: 16.4 µM
3,Cc1cc2c(C)cc(=O)[nH]c2cc1NC(=O)CCl,"inconclusive: 25.9 µM [falling, partial curve, poor fit]"
4,CC1N/C(=C\C(=O)c2ccccc2)N(O)C1(C)C (stereo not given),"inconclusive: 2.31 µM [activator, partial curve, poor fit]"
5,COc1cc(C(=O)OCC(=O)Nc2nnc(-c3ccccc3)o2)cc(OC)c1OC,"inconclusive: 23.1 µM [falling, partial curve]"
6,O=C(Nc1cccc2ncccc12)c1cc([N+](=O)[O-])ccc1Cl,"inconclusive: 10.3 µM [activator, partial curve]"
7,COc1ccc(C(=O)Nc2ccc(O)c3c(=O)cc(-c4cccc(Cl)c4)oc23)cc1,"inconclusive: 23.1 µM [falling, single point]"
8,CCN(CC)S(=O)(=O)c1ccc(S(=O)(=O)N(Cc2ccccn2)Cc2ccco2)cc1,"inconclusive: 13 µM [falling, partial curve, poor fit]"
9,CNc1ccc(C(=O)N2CCN(S(=O)(=O)c3ccc4c(c3)OCCCO4)CC2)cc1[N+](=O)[O-],"inconclusive: 29.1 µM [falling, single point]"
10,COc1ccc(CNC(=O)C2CCN(C(=O)c3sccc3-n3cccc3)CC2)cc1,inactive
11,CSc1ccc(CCNC(=O)Cn2nc(C)n3c(cc4sccc43)c2=O)cc1,inactive
12,Cc1ccc(NC(=O)c2ccc3c(c2)NC(=O)c2ccccc2S3)c(Cl)c1,"inconclusive: 32.6 µM [falling, single point]"
13,O=C(CSc1nncs1)N1c2ccccc2Sc2ccccc21,"inconclusive: 32.6 µM [falling, single point]"
14,COc1cccc(C(=O)Nc2nc3c(s2)CN(C)CC3)c1,"inconclusive: 14.6 µM [activator, partial curve, poor fit]"
15,CC(=O)Nc1ccc(OCC(O)Cn2c3ccccc3c3ccccc32)c(C)c1 (stereo not given),inactive
16,Cc1ccc(-c2csc(NC(=O)c3ccc(S(=O)(=O)N4CCc5ccccc54)cc3)n2)cc1,"inconclusive: 7.31 µM [falling, partial curve, poor fit]"
17,CCc1ccc(-n2nnnc2SCC(=O)Nc2ccc(NC(C)=O)cc2)cc1,"inconclusive: 9.2 µM [falling, partial curve, poor fit]"
18,CC1(C)Oc2ccc(NC(=O)c3ccco3)cc2O1,"inconclusive: 6.51 µM [activator, full curve]"
19,CN(C)C=Nc1ncc2c3ccccc3n(CCN(C)C)c2c1C#N,"inconclusive: 18.4 µM [falling, single point]"
20,C=CC(=O)Nc1cccc(Nc2nc(N[C@H]3CC[C@H](N(C)C)CC3)nc3c2ncn3C(C)C)c1,active: 0.58 µM

# An excerpt of these results, with tabs:
row	Compound	Potency
1	CCCCCCCc1ccc(-c2ccc(O)cc2)nc1	inconclusive: 29.1 µM [activator, single point]
2	Cc1ccc(Cl)cc1NC1=C/C(=N\S(=O)(=O)c2cccs2)c2ccccc2C1=O	active: 16.4 µM
4	CC1N/C(=C\C(=O)c2ccccc2)N(O)C1(C)C (stereo not given)	inconclusive: 2.31 µM [activator, partial curve, poor fit]
6	O=C(Nc1cccc2ncccc12)c1cc([N+](=O)[O-])ccc1Cl	inconclusive: 10.3 µM [activator, partial curve]
8	CCN(CC)S(=O)(=O)c1ccc(S(=O)(=O)N(Cc2ccccn2)Cc2ccco2)cc1	inconclusive: 13 µM [falling, partial curve, poor fit]
9	CNc1ccc(C(=O)N2CCN(S(=O)(=O)c3ccc4c(c3)OCCCO4)CC2)cc1[N+](=O)[O-]	inconclusive: 29.1 µM [falling, single point]
10	COc1ccc(CNC(=O)C2CCN(C(=O)c3sccc3-n3cccc3)CC2)cc1	inactive
11	CSc1ccc(CCNC(=O)Cn2nc(C)n3c(cc4sccc43)c2=O)cc1	inactive
16	Cc1ccc(-c2csc(NC(=O)c3ccc(S(=O)(=O)N4CCc5ccccc54)cc3)n2)cc1	inconclusive: 7.31 µM [falling, partial curve, poor fit]
19	CN(C)C=Nc1ncc2c3ccccc3n(CCN(C)C)c2c1C#N	inconclusive: 18.4 µM [falling, single point]
20	C=CC(=O)Nc1cccc(Nc2nc(N[C@H]3CC[C@H](N(C)C)CC3)nc3c2ncn3C(C)C)c1	active: 0.58 µM
